In this data set the test system is MUC 1. Put plainly: fluorescent strand-displacement aptasensor (RNase H recycling, GO quenching). The conditions noted are these: 50 ng/mL, negligible signal; 20 mM Tris-HCl, 40 mM KCl, 8 mM MgCl2, 1 mM DTT, pH 7.8; 20 min Ap/P1 + CRP incubation; temperature not stated.

For at least one entry, the source does not settle the construct or the ends of the probe. No signal at the amounts used counts as a negative.

As to “GGCAGGAAGACAAACATATAATTGAGATCGTTTGATGACTTTGTAAGAGTGTGGAATGGTCTGTGGTGCTGT / AGCACCACAGACCATTCCACACT [CRP aptamer (Ap) presented as Ap/P1 complex]”, the binding result is on record as “no binding”.
